Laboratory results as given in the supplement of paper PMC10849652.
This is one part of the list.

The chains behind the UniProt entries cited, without tags or fusion partners. Where a name states a change or a piece, a line headed by the entry shows the natural chain unless it says otherwise.
UniProt Q9Y4K3: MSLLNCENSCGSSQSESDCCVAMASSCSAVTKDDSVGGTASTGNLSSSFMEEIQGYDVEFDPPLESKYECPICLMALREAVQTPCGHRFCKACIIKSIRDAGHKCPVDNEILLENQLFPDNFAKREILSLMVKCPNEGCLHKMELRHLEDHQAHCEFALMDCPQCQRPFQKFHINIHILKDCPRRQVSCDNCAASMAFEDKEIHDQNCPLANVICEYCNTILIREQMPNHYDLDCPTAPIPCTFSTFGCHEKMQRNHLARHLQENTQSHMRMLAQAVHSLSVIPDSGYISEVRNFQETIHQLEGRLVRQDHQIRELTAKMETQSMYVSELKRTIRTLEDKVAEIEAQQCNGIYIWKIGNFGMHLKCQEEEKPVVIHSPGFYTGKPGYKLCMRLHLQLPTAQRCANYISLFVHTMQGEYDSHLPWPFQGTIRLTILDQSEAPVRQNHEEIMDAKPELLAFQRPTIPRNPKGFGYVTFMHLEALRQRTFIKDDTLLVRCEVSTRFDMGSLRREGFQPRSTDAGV
UniProt O14656: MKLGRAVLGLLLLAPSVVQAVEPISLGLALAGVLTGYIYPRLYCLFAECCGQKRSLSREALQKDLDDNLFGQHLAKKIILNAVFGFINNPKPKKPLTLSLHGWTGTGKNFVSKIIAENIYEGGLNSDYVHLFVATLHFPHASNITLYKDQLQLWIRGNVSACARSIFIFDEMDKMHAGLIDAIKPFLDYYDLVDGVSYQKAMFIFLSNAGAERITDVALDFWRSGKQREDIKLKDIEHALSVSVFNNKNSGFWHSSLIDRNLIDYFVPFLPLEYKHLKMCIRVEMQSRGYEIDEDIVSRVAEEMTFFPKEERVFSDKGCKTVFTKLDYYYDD
UniProt Q9NXH9: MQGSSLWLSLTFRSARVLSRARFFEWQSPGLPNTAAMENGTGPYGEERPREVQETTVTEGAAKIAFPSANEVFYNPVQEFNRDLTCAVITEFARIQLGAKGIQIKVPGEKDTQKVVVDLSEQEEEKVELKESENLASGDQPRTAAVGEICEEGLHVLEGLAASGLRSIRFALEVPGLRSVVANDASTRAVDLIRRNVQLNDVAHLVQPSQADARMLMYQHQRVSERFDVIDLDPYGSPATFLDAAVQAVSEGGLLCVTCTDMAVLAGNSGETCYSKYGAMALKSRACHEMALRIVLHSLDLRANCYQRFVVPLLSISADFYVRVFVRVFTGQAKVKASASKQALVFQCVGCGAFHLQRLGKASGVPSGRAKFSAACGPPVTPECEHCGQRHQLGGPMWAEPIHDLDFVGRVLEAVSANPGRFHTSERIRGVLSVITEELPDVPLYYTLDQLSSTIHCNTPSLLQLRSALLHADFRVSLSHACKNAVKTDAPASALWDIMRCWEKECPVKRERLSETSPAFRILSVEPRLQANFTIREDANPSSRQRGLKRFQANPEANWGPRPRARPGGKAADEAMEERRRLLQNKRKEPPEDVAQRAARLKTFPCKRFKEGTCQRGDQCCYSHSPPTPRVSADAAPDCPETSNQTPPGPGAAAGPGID
UniProt Q5JTV8: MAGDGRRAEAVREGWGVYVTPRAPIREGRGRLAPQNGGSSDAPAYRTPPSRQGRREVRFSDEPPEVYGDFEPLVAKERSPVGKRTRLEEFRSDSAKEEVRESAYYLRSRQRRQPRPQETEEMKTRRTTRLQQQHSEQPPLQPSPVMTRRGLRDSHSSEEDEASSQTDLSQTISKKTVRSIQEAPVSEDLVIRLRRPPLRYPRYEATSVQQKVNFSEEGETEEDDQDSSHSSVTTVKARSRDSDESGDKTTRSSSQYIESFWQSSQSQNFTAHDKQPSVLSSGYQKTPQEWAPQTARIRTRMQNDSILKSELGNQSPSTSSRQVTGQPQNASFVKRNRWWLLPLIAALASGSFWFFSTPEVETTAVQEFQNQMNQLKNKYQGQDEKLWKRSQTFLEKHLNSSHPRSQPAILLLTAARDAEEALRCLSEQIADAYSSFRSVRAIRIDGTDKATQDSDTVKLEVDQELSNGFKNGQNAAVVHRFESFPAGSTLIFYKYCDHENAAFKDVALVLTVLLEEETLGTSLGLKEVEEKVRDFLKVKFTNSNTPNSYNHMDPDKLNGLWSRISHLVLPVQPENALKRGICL
UniProt Q86SZ2: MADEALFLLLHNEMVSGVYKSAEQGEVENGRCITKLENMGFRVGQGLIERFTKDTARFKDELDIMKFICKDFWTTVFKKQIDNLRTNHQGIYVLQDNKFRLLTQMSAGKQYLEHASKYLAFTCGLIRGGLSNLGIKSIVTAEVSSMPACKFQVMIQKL
UniProt Q15388, whole entry, looked up: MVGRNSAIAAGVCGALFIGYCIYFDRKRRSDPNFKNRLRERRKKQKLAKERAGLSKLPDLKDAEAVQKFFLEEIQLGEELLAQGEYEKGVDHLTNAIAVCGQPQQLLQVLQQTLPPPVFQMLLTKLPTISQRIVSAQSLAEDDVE
UniProt Q9ULW0, whole entry, looked up: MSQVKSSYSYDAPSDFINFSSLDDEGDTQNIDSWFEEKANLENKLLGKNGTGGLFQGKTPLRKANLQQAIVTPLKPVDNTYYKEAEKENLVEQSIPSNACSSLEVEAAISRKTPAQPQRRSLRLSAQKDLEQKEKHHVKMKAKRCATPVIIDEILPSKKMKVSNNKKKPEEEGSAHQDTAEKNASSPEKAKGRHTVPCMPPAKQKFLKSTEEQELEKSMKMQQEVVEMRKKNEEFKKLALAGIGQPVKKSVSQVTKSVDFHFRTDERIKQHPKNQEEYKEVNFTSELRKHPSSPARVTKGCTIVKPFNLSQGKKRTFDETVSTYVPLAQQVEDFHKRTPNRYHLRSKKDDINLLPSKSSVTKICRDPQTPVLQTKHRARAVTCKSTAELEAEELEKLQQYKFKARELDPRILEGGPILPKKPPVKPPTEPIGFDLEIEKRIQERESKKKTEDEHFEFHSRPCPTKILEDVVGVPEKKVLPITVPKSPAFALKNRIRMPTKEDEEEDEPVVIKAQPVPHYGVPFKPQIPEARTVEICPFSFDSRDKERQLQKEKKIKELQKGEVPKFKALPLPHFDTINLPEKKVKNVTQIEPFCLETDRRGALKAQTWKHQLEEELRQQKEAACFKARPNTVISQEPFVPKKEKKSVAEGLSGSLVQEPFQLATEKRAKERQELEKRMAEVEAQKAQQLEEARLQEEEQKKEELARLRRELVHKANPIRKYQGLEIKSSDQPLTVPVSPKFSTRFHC
UniProt Q9BQ61: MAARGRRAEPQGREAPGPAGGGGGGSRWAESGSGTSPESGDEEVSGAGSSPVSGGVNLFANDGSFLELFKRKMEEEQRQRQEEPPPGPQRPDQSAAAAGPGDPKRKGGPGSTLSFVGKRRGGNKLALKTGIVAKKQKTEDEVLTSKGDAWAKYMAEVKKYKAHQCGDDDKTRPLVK
UniProt O75674: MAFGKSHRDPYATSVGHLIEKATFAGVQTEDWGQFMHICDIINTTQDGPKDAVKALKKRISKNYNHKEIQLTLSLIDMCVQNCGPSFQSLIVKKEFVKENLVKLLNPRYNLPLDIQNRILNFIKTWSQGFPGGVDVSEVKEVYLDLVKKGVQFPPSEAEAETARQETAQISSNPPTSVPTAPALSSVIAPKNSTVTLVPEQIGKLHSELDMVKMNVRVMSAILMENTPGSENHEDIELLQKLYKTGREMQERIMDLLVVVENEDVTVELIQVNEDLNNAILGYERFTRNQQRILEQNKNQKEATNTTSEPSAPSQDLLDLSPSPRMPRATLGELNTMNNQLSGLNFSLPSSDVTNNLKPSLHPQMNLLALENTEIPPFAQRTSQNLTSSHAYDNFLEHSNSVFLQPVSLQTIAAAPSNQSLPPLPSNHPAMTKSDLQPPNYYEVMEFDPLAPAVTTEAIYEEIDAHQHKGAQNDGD
UniProt Q15642: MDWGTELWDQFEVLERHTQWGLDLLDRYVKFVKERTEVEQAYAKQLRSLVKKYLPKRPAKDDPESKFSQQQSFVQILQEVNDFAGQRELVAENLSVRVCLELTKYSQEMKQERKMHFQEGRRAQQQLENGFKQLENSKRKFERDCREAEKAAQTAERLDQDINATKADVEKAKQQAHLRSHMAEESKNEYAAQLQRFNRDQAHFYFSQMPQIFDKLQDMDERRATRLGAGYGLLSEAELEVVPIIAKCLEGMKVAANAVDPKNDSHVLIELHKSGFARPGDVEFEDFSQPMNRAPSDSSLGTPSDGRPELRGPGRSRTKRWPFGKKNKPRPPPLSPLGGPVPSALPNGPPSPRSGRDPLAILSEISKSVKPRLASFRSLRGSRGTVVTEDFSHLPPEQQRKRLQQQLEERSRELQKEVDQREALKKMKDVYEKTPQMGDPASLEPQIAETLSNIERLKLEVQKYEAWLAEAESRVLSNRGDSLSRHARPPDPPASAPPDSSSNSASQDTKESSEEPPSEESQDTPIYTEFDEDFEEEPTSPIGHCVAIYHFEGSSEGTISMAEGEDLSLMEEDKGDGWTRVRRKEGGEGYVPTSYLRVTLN
UniProt Q15650: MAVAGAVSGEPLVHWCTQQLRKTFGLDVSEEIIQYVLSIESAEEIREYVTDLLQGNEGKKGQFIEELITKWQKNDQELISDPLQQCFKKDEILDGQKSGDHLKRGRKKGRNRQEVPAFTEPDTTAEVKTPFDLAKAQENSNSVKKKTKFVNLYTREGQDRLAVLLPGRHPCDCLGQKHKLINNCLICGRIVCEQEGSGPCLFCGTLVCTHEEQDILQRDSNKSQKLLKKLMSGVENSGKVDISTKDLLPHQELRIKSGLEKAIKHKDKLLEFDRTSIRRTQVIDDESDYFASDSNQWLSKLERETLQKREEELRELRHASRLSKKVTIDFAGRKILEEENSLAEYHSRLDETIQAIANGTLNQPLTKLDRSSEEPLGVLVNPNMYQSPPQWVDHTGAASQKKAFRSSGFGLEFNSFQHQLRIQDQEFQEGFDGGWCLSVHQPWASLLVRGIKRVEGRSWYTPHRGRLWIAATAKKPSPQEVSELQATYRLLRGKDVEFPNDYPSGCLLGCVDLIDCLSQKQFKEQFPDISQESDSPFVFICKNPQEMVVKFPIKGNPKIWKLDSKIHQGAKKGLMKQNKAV
UniProt P13693: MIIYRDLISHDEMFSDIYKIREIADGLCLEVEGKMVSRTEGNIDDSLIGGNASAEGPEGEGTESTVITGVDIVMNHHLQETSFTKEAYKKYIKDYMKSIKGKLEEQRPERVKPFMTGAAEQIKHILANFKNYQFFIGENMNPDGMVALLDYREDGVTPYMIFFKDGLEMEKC
UniProt O95985: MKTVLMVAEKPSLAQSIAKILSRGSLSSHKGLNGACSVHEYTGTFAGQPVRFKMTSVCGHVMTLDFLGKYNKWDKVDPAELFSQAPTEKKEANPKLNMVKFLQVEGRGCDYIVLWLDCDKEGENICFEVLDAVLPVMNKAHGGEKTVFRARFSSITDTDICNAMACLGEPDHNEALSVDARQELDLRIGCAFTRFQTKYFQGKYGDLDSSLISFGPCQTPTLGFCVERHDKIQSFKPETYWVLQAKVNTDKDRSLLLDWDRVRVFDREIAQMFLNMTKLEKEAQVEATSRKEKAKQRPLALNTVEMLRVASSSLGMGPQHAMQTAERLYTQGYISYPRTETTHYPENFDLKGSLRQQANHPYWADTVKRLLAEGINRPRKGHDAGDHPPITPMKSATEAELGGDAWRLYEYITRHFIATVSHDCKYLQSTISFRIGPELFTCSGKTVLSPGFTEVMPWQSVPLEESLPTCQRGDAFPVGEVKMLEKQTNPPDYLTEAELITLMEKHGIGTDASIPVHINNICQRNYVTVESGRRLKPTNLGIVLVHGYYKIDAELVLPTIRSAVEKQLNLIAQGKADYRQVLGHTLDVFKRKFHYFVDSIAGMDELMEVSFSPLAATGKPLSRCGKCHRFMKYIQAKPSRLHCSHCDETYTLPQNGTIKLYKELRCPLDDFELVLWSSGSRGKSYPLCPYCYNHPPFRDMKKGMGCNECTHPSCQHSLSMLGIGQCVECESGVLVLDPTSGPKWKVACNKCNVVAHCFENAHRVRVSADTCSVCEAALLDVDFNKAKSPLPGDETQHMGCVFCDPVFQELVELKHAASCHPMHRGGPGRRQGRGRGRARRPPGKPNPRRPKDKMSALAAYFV
UniProt Q7L0Y3: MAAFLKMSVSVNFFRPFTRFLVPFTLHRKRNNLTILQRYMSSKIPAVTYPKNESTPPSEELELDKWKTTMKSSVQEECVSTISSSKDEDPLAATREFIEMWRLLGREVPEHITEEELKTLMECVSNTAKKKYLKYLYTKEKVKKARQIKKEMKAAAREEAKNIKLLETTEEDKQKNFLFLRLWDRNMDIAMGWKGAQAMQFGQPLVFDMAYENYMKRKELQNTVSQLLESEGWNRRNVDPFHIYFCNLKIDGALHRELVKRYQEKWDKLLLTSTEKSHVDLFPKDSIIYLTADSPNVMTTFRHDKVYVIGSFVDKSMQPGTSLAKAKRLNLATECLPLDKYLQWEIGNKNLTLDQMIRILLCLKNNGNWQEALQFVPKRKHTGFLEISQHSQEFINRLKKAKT

Assays:
Test in all cases: log2 fold change, soluble protein after heating vs DMSO (PISA); higher = thermal stabilisation; K562 cells, 10 uM, 30 min; active = over 0.2 and 3.5 SD of the protein, either way, in both replicates (recomputed)
[1] = compound: NC(=O)Nc1cc(-c2cccc(F)c2)sc1C(=O)N[C@H]1CCCNC1
In short: (§1)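 K562 cells at 2×10^6 cells/mL were treated with 10 μM compound for 30 min. Aliquots were heated for 3 min across 48°C-58°C, pooled, and extracted in PBS with 0.5% NP-40 at 4°C; soluble protein was the supernatant after 21,000xg for 90 min. Soluble protein was quantified by TMTpro 16plex LC-MS/MS with channel sums equalised, and reported as log2 fold change in thermal stability against DMSO controls, with values from duplicates.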

[2] = compound: NC(=O)c1cnc(N[C@@H]2CCCC[C@@H]2N)nc1Nc1cccc(-n2nccn2)c1
In short: as §1

[3] = compound: NC1(c2ccc(-c3nc4ccn5c(=O)[nH]nc5c4cc3-c3ccccc3)cc2)CCC1
In short: as §1

[4] = compound: NCC(=O)Nc1ccc(-n2nc(C(F)(F)F)cc2-c2ccc3c(ccc4ccccc43)c2)cc1
In short: as §1

[5] = compound: Nc1ccccc1NC(=O)c1ccc(CNC(=O)OCc2cccnc2)cc1 [entinostat]
In short: as §1

[6] = compound: O=C(CCCCCCC(=O)Nc1ccccc1)NO [vorinostat]
In short: as §1

[7] = compound: O=C(CCCCCCNC(=O)c1cnc(N(c2ccccc2)c2ccccc2Cl)nc1)NO [citarinostat]
In short: as §1

[8] = compound: O=C(O)c1ccc2c(c1)nc(Nc1cccc(Cl)c1)c1ccncc12 [silmitasertib]
In short: as §1

[9] = compound: O=C1NC(=O)C(c2cnc3ccccn23)=C1c1cn2c3c(cc(F)cc13)CN(C(=O)N1CCCCC1)CC2
In short: as §1

[10] = compound: c1cc(OCCN2CCCCC2)cc(-c2n[nH]c3ccc(-c4nnc[nH]4)cc23)c1
In short: as §1

Measured: log2 fold change

TPM4 isoform 2 (UniProt P67936)
inactive: [1] 0.063 | [2] 0.137 | [3] -0.071 | [4] 0.211 | [5] 0.122 | [6] -0.063 | [7] -0.037 | [8] -0.009 | [9] -0.013 | [10] -0.028

TRUB1 (UniProt Q8WWH5)
inactive: [1] 0.039 | [2] -0.018 | [3] -0.105 | [4] -0.012 | [5] 0.015 | [6] 0.098 | [7] 0.038 | [8] 0.015 | [9] -0.037 | [10] -0.057

TRAF6 (UniProt Q9Y4K3)
inactive: [1] 0.002 | [2] 0.054 | [3] 0.05 | [4] -0.119 | [5] 0.062 | [6] 0.082 | [7] -0.021 | [8] -0.004 | [9] -0.023 | [10] 0.064

TRAPPC12 (UniProt Q8WVT3)
inactive: [1] -0.046 | [2] -0.01 | [3] -0.183 | [4] -0.015 | [5] 0.013 | [6] 0.014 | [7] 0.042 | [8] 0.026 | [9] -0.008 | [10] -0.146

TOR1A (UniProt O14656)
inactive: [1] -0.012 | [2] -0.022 | [3] -0.093 | [4] 0.003 | [5] -0.005 | [6] -0.019 | [7] 0.042 | [8] 0.025 | [9] 0.004 | [10] -0.009

TOM1 isoform 2 (UniProt O60784)
inactive: [1] -0.002 | [2] -0.104 | [3] -0.066 | [4] -0.082 | [5] -0.045 | [6] -0.119 | [7] 0.056 | [8] -0.019 | [9] -0.026 | [10] -0.081

TRMT1 (UniProt Q9NXH9)
inactive: [1] 0.01 | [2] 0.027 | [3] -0.007 | [4] 0.002 | [5] -0.025 | [6] -0.032 | [7] -0.018 | [8] -0.02 | [9] -0.038 | [10] 0.007

TRAPPC13 isoform 5 (UniProt A5PLN9)
inactive: [1] -0.01 | [2] -0.248 | [3] -0.269 | [4] -0.148 | [5] 0.045 | [6] 0.079 | [7] 0.136 | [8] 0.017 | [9] -0.016 | [10] -0.13

TOR1AIP1 isoform 3 (UniProt Q5JTV8)
inactive: [1] -0.018 | [2] 0.016 | [3] -0.03 | [4] 0.01 | [5] -0.008 | [6] -0.019 | [7] 0.048 | [8] -0.01 | [9] -0.022 | [10] -0.005

TRA2B (UniProt P62995)
inactive: [1] 0.037 | [2] 0.268 | [3] 0.494 | [4] 0.04 | [5] -0.124 | [6] -0.047 | [7] -0.029 | [8] 0.017 | [9] 0.268 | [10] -0.181

TRAPPC6B (UniProt Q86SZ2)
inactive: [1] 0.025 | [2] 0.016 | [3] -0.025 | [4] 0.007 | [5] 0.066 | [6] 0.013 | [7] 0.046 | [8] 0.001 | [9] 0.143 | [10] -0.058

TOMM20 (UniProt Q15388)
inactive: [1] 0.008 | [2] -0.034 | [3] -0.023 | [4] -0.131 | [5] 0.01 | [6] 0.031 | [7] -0.088 | [8] -0.006 | [9] -0.088 | [10] -0.01

TNPO1 (UniProt Q92973)
inactive: [1] 0.003 | [2] -0.039 | [3] -0.157 | [4] -0.06 | [5] 0.044 | [6] 0.051 | [7] 0.033 | [8] 0.025 | [9] -0.021 | [10] -0.066

TPX2 (UniProt Q9ULW0)
inactive: [1] 0.121 | [2] 0.003 | [3] 0.078 | [4] 0.004 | [5] -0.058 | [6] -0.111 | [7] -0.131 | [8] 0.096 | [9] -0.027 | [10] -0.082

TRIR (UniProt Q9BQ61)
inactive: [1] -0.017 | [2] -0.007 | [3] 0.05 | [4] 0.027 | [5] -0.076 | [6] -0.103 | [7] -0.043 | [8] 0.029 | [9] -0.085 | [10] 0.028

TNFRSF8 (UniProt P28908)
inactive: [1] -0.12 | [2] 0.128 | [3] 0.106 | [4] 0.025 | [5] -0.066 | [6] -0.078 | [7] -0.003 | [8] -0.052 | [9] -0.053 | [10] -0.025

TRAPPC10 (UniProt P48553)
inactive: [1] -0.128 | [2] -0.094 | [3] -0.062 | [4] 0.02 | [5] -0.032 | [6] 0.084 | [7] -0.028 | [8] 0.018 | [9] -0.082 | [10] -0.04

TOM1L1 (UniProt O75674)
inactive: [1] -0.086 | [2] 0.102 | [3] 0.008 | [4] 0.018 | [5] -0.034 | [6] 0.092 | [7] -0.074 | [8] 0.021 | [9] 0.008 | [10] -0.041

TRMU (UniProt O75648)
inactive: [1] -0.031 | [2] 0.032 | [3] -0.072 | [4] -0.031 | [5] -0.096 | [6] 0.008 | [7] -0.044 | [8] -0.009 | [9] -0.086 | [10] -0.003

TRIP10 (UniProt Q15642)
inactive: [1] -0.003 | [2] -0.055 | [3] -0.129 | [4] -0.011 | [5] 0.019 | [6] -0.063 | [7] 0 | [8] 0.046 | [9] -0.207 | [10] -0.014

TRIP4 (UniProt Q15650)
inactive: [1] -0.031 | [2] 0.024 | [3] -0.088 | [4] -0.028 | [5] 0.043 | [6] 0.05 | [7] 0.064 | [8] 0.032 | [9] 0.011 | [10] -0.118

TPI1 (UniProt P60174)
inactive: [1] -0.018 | [2] -0.013 | [3] 0.022 | [4] -0.005 | [5] -0.022 | [6] -0.041 | [7] 0.001 | [8] -0.025 | [9] -0.046 | [10] 0.017

TPT1 (UniProt P13693)
inactive: [1] 0 | [2] -0.049 | [3] -0.059 | [4] -0.039 | [5] 0.02 | [6] 0.007 | [7] 0.056 | [8] -0.077 | [9] -0.015 | [10] 0.004

TRIM33 (UniProt Q9UPN9)
inactive: [1] 0.134 | [2] -0.114 | [3] -0.028 | [4] -0.002 | [5] 0.091 | [6] 0.08 | [7] -0.002 | [8] 0.029 | [9] -0.003 | [10] 0.135

Reprinted at random: 2 entries already listed, in no set order.
TPT1 (UniProt P13693)
inactive: [1] 0 | [2] -0.049 | [3] -0.059 | [4] -0.039 | [5] 0.02 | [6] 0.007 | [7] 0.056 | [8] -0.077 | [9] -0.015 | [10] 0.004

TRIP10 (UniProt Q15642)
inactive: [1] -0.003 | [2] -0.055 | [3] -0.129 | [4] -0.011 | [5] 0.019 | [6] -0.063 | [7] 0 | [8] 0.046 | [9] -0.207 | [10] -0.014

Next records follow.

TOP3B (UniProt O95985)
inactive: [1] 0.066 | [2] 0.004 | [3] 0.033 | [4] 0.062 | [5] -0.008 | [6] 0.053 | [7] -0.077 | [8] 0.015 | [9] 0.169 | [10] 0.073

TNIK isoform 6 (UniProt Q9UKE5)
inactive: [1] 0.065 | [2] -0.074 | [3] 0.005 | [4] 0.012 | [5] 0.045 | [6] 0.034 | [7] -0.015 | [8] 0.016 | [9] 0.016 | [10] -0.069

TRMT10C (UniProt Q7L0Y3)
inactive: [1] -0.055 | [2] -0.027 | [3] -0.137 | [4] -0.018 | [5] 0.022 | [6] 0 | [7] -0.018 | [8] -0.026 | [9] -0.075 | [10] 0.035
